Paper PMC12645360
These are yes or no findings as the source states them, for the method shown. Binding seen in cells or lysates may run through a third protein. Some results given as binding are weak or reduced against the parent protein; the word gives no strength.

Chains of the proteins cited; added tags and fusions are not shown. Lines headed by an entry give the natural chain unless they say otherwise; changes in a name come on top. A line that says so, or that is headed by a name, gives the form on record, which may keep a tag or linker. Residues count along the entry.
UniProt Q96RU7: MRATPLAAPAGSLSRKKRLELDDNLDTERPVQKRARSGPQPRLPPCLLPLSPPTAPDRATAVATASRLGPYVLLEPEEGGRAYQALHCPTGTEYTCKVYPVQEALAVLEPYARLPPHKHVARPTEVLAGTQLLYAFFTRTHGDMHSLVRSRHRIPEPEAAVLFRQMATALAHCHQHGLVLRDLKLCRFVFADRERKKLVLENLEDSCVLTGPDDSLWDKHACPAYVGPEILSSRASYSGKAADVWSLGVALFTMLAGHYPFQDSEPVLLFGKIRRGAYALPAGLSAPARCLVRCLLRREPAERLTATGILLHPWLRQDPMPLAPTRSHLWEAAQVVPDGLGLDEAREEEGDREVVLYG
HA-tagged TRIB3 fragment, amino acids 1-180: residues 1-180 of Q96RU7
HA-tagged TRIB3 fragment, amino acids 72-315: residues 72-315 of Q96RU7
HA-tagged TRIB3 fragment, amino acids 181-358: residues 181-358 of Q96RU7
UniProt Q99607: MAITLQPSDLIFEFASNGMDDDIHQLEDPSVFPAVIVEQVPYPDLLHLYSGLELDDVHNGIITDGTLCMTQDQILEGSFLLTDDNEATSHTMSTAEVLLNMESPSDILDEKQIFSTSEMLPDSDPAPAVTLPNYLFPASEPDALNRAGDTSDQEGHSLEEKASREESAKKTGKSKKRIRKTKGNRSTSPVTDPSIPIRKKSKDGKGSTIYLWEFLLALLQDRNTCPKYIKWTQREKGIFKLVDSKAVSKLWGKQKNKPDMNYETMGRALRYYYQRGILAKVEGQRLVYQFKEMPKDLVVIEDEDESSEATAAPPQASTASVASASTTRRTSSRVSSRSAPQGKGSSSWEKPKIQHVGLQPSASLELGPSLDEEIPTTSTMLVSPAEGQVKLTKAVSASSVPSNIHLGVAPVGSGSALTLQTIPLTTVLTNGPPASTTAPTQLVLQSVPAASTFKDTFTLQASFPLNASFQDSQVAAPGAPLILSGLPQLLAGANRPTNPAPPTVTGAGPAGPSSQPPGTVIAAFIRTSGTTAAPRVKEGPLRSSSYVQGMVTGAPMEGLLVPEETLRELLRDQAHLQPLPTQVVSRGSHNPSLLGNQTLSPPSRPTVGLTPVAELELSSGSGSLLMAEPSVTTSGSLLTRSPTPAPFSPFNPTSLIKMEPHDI

Assays:
Assay in all cases: co-IP; 293T cells co-transfected with a TRIB3-HA construct and ELF4-Myc-DDK, 48 h; RIPA lysate (500 ug protein); anti-HA antibody or isotype-matched IgG overnight at 4°C, Protein G Mag Sepharose beads; western blot with anti-Flag or anti-HA
[1] = target: HA-tagged TRIB3 fragment, amino acids 72-315 (UniProt Q96RU7)
[2] = target: HA-tagged TRIB3 fragment, amino acids 181-358 (UniProt Q96RU7)
[3] = target: HA-tagged TRIB3 fragment, amino acids 1-180 (UniProt Q96RU7)
[4] = target: HA-tagged full-length TRIB3 (tribbles pseudokinase 3, amino acids 1-358) (UniProt Q96RU7)

## full-length Myc-DDK-tagged ELF4 (E74-like ETS transcription factor 4) (from UniProt Q99607 1-663)
[1]
  binding: no binding
[2]
  binding: binds
[3]
  binding: binds
[4]
  binding: binds
